Assay [1] has as its target T1, M. kandleri AV19 eukaryotic-type DNA primase p46 subunit (MK1394), short variant (Methanopyrus kandleri AV19) (UniProt Q8TVJ5).
T1 sequence: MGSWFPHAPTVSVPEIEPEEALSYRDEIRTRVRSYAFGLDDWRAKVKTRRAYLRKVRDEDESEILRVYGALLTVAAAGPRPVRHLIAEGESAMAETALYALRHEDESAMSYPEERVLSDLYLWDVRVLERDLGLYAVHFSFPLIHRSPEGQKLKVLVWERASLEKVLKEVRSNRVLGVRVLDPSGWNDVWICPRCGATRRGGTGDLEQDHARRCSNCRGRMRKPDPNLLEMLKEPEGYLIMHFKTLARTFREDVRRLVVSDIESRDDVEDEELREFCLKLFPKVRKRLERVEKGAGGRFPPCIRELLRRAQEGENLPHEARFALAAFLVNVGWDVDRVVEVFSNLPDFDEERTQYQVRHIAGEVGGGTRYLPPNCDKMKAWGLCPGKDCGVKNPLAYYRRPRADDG
As to the kind of experiment: SDS-PAGE of the co-purified complex (FIG. 24).

Assay [2] concerns the target T1, M. kandleri AV19 eukaryotic-type DNA primase p46 subunit (MK1394), short variant (Methanopyrus kandleri AV19). The assay is described as follows: lysates mixed about 1:1, heated at 80 °C, co-purified on Heparin-Sepharose.
In assay [3] the target is T2, M. kandleri AV19 DNA polymerase family B (Mka PolB) (MK1039) (Methanopyrus kandleri AV19).
T2 sequence: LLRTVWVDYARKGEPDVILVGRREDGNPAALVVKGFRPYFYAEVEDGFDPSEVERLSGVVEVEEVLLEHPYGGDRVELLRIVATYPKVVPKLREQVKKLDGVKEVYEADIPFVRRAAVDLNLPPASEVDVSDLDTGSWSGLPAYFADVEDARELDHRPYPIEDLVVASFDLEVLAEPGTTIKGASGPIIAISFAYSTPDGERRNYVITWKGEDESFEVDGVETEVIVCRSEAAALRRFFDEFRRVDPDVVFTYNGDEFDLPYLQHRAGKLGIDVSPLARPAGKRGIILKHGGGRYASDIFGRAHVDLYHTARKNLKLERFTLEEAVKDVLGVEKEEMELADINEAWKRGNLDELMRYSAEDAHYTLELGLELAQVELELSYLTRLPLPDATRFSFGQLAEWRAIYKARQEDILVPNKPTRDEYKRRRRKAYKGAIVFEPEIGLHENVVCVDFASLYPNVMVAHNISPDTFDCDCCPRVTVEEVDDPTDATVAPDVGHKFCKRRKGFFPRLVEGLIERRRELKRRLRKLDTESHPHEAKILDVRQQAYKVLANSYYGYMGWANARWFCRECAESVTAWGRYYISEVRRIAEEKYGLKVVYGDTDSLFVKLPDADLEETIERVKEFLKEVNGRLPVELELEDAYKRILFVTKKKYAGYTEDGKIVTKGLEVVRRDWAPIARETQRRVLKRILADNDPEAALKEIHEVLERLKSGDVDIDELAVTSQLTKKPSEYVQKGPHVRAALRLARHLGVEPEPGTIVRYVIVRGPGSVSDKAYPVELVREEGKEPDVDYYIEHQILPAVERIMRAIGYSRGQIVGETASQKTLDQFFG
The assay is described as follows: primer extension assay with and without PCNA (5.6 µM subunits), no clamp loader; indirect.

Results are given in words; binding and its absence hold for the method and conditions named. For part of these data: In cells and extracts the contact can be indirect. Some binding calls cover weakened binding; strength is not graded here.

B1: M. kandleri AV19 eukaryotic-type DNA primase p41 subunit (MK0586) (enzyme)
chain: MDFYSPTFHSRECETAGARKMDVKTLVGEYYASLPSGVLREFVEDPSSREWAYTFLKGRDIVFTRKRRLDEVSGFLELYHSTGKFKNPKSWEGLLGWDLVIDVDAELPEEPEAFLKSLGRLLKDVVIACDELRRALGFPRPDVVNFSGSKGFHVRYFDSTVRRWLRWDLHERRGIKPGEIIQRVGRGVVWLAREGFVAGDRVRALREGLLDDSMYDLKRLIRCVGSMNVKSLLPAVPVWSREGGRWVDFRDEVLGMNDLELGCLVAHRTLTWPGRGGLGVVLSRVLDLDTDADPEDPSDFVEVWGNVMSVLGELKP
Consider B1, for which the binding entry in assay [1] and in assay [2] was “binds” in each case.

B2: M. kandleri AV19 PCNA (MK1030), DNA polymerase sliding clamp (other)
chain: LVEFRAYQEEARYFKYAFNAAGKVVEEAPLIVTENGIVSRAMDASHIAMAVLEMPWEMFDEYEPPSDELMYGLDMEEVTRIVRRARVTDEITLEGEDEEEVIIKLGSSGYEREFRLRSIDIDDIPDEPELDFAVEVTVVPDFIQDAVRDADLVSDTVKVGAKGNTFYFKAEGERGRVIPKVQEGAEALLTFEVEEDVETAYPLDYLKDMIQAAQGAESVRIRLGQDMPLELTFRIGPAGEGKLTFYLAPRVEE
For B2, the binding result in assay [3] is “binds”.

(Values after patent US20060068386A1, “Complete genome and protein sequence of the hyperthermophile methanopyrus kandleri av19 and monophyly of archael methanogens and methods of use thereof” (priority 2002, published 2006).)
